# Some of the results follow.
# Chains of the proteins cited; added tags and fusions are not shown. Lines headed by an entry give the natural chain unless they say otherwise; changes in a name come on top.
# UniProt Q8NG48: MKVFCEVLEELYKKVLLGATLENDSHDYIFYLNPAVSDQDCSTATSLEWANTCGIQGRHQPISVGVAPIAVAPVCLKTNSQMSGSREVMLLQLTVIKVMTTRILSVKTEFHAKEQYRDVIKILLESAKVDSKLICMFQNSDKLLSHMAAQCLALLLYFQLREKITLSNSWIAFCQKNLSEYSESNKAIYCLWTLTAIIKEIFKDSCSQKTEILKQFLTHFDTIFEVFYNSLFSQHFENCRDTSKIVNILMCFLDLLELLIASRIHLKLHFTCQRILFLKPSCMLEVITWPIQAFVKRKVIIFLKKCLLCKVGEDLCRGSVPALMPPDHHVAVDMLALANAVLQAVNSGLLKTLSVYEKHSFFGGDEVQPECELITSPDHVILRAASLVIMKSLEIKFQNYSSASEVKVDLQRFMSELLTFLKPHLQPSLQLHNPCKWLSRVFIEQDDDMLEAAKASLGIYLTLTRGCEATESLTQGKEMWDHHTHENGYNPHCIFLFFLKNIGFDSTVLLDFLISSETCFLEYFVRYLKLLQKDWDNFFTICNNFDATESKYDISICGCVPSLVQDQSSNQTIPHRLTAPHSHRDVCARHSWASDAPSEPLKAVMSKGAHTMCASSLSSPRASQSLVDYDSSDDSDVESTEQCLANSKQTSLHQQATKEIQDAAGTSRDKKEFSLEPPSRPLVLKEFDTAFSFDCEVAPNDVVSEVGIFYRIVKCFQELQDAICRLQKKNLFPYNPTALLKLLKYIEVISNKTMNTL
# UniProt Q9BRT6: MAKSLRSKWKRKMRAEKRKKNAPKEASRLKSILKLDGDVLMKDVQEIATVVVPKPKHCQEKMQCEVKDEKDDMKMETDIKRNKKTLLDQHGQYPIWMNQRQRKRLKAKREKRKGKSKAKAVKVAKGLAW
# UniProt Q6UWP7: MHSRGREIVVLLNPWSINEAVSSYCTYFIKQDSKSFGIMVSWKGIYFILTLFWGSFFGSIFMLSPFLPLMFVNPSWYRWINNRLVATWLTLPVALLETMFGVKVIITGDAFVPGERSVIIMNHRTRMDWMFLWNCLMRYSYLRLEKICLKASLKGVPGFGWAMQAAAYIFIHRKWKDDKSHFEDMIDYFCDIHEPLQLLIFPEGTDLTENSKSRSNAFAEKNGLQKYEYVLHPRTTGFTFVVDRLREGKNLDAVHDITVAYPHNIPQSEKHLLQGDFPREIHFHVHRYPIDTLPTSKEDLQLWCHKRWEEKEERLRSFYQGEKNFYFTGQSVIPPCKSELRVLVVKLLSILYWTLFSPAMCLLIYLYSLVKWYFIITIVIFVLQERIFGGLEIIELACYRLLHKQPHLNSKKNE
# UniProt Q7L5N7: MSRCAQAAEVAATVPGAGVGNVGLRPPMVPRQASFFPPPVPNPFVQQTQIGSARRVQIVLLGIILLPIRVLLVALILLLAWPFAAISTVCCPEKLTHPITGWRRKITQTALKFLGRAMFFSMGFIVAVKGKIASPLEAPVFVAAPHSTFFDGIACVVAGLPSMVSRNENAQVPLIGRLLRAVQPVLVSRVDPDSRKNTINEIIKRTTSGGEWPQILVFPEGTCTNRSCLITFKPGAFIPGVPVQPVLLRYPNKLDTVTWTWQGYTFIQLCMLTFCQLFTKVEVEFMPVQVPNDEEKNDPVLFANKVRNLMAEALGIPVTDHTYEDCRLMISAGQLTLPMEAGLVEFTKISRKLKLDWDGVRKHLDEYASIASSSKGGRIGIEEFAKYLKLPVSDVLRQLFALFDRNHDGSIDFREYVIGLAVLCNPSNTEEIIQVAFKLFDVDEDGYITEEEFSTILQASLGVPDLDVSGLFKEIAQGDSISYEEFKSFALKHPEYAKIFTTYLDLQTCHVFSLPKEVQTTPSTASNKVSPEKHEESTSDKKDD
# UniProt O75427: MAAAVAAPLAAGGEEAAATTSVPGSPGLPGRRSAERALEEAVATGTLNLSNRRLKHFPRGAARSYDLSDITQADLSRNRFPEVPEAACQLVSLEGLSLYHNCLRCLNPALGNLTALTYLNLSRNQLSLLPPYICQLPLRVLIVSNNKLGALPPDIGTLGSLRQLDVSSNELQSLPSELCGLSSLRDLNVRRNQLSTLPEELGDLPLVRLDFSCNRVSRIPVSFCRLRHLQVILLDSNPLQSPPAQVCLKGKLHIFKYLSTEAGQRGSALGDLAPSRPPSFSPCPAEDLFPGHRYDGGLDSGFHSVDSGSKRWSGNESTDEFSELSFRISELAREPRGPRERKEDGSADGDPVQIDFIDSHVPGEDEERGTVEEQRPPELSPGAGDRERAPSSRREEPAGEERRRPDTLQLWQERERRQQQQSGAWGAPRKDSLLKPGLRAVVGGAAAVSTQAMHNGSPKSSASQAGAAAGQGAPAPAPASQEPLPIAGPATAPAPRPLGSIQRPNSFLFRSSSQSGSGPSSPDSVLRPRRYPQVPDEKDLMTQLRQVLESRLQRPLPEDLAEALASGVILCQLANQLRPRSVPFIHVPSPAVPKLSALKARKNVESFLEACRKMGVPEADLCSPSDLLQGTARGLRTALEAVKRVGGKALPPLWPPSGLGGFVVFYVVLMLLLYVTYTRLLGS
# UniProt Q9UGP4: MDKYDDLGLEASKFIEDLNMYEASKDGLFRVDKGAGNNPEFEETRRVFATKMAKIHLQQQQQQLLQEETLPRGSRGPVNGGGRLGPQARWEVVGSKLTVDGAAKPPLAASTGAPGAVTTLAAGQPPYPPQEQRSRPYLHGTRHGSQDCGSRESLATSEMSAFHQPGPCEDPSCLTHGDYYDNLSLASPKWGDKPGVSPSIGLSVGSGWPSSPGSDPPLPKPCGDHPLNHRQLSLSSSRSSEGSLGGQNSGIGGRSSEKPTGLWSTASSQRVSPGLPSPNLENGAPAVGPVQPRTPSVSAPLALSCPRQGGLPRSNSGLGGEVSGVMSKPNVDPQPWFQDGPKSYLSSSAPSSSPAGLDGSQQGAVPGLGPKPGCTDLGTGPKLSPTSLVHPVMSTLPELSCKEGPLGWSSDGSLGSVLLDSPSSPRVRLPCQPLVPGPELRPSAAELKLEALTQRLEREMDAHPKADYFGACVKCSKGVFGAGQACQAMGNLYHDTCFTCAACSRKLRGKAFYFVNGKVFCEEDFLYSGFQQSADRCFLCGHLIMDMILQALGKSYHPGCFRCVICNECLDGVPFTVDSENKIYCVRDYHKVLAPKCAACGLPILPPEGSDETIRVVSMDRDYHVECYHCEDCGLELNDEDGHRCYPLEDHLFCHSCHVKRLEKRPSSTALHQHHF
# UniProt Q13094: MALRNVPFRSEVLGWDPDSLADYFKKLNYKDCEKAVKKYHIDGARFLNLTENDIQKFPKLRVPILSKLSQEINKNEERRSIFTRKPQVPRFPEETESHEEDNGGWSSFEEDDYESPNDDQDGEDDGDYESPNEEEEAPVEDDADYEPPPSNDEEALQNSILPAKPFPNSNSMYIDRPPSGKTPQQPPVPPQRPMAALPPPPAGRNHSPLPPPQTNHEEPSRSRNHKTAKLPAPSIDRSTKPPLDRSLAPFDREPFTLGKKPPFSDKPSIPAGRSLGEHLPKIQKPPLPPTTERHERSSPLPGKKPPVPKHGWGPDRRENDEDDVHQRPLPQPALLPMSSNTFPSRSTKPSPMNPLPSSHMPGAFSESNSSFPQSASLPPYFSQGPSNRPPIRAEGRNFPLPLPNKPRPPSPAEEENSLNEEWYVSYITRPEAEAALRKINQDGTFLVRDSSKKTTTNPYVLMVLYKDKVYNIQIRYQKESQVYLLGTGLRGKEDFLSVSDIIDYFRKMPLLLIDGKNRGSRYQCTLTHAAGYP
# UniProt P62310: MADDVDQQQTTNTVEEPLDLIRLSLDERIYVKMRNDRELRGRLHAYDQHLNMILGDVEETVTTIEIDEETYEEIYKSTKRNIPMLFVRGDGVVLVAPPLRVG
# UniProt Q9H6V9: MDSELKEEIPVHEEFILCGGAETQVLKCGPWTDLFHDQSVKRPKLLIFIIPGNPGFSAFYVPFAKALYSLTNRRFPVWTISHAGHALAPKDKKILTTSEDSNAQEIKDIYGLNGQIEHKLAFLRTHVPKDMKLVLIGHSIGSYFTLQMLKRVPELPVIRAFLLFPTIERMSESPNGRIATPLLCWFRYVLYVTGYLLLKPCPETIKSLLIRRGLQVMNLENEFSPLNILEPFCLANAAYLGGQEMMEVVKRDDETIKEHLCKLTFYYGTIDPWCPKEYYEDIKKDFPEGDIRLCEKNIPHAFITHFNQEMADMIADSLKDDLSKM
# UniProt Q8N1G4: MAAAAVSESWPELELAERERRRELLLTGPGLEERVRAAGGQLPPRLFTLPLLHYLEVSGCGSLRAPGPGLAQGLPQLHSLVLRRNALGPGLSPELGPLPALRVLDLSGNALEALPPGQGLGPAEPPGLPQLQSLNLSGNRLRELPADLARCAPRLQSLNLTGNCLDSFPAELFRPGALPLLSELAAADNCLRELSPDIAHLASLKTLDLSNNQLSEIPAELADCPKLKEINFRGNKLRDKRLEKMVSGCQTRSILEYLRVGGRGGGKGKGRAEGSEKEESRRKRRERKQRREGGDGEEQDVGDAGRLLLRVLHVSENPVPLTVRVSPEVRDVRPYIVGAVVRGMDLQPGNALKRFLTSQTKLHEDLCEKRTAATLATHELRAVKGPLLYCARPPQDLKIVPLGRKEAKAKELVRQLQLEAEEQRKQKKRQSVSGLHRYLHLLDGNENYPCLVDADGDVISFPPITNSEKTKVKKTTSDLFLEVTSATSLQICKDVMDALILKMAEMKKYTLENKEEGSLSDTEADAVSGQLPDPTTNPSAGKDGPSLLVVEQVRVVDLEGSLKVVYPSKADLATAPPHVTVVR
# UniProt Q15334: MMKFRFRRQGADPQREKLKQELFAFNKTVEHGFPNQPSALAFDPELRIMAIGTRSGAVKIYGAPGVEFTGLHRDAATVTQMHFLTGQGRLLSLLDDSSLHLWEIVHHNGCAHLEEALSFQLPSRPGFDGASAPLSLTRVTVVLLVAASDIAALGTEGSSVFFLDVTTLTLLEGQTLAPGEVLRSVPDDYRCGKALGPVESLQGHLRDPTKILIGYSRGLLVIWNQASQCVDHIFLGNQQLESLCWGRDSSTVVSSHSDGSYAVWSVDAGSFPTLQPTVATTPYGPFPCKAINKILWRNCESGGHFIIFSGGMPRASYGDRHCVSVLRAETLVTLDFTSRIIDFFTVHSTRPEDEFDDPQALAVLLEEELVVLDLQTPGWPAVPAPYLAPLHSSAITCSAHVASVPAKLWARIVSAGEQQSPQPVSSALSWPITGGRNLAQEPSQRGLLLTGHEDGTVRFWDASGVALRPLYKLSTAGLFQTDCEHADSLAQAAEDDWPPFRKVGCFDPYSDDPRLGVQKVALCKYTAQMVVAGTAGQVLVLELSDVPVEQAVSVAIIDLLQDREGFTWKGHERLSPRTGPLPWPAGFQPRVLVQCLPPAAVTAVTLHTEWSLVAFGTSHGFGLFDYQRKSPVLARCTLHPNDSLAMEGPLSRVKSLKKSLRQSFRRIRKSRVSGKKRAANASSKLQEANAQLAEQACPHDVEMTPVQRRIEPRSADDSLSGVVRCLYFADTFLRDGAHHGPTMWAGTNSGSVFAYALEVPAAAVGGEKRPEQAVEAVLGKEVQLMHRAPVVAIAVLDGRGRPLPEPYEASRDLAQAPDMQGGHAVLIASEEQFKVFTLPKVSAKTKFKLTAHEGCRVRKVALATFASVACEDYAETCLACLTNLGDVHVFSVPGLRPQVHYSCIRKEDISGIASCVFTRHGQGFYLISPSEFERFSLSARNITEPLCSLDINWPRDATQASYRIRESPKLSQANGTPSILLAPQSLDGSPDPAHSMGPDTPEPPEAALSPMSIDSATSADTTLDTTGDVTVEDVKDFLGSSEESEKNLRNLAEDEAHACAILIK
# UniProt Q9P244: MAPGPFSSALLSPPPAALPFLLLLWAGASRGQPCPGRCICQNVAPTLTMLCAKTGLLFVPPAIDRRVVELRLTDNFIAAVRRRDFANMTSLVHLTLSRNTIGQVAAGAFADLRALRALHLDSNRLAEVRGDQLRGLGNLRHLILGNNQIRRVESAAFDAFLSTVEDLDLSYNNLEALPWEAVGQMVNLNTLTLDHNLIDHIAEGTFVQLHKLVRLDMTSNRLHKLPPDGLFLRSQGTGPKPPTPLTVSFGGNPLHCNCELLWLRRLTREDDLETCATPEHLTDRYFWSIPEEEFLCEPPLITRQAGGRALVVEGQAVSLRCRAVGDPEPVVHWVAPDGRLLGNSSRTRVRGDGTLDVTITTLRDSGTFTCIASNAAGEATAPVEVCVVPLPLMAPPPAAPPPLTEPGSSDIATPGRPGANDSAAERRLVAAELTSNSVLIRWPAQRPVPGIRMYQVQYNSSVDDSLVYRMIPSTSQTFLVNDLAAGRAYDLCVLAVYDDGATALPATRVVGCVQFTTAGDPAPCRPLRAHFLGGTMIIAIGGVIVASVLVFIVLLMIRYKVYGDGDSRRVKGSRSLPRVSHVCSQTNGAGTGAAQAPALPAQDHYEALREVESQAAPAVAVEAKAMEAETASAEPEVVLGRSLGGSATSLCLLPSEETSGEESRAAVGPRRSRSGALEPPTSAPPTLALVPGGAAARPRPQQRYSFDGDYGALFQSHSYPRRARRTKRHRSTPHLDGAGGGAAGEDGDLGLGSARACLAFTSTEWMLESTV
# Compound: Cc1sc2c(c1C)C(c1ccc(Cl)cc1)=N[C@@H](CC(=O)OC(C)(C)C)c1nnc(C)n1-2
# Assay: log2 fold change, soluble protein after heating vs DMSO (PISA); higher = thermal stabilisation; K562 lysate, 10 uM; active = over 0.2 and 3.5 SD of the protein, either way, in both replicates (recomputed)
# Summary of the method: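 Dounce homogenisation of K562 pellets in PBS pH 7.4 with 1 mM MgCl2 produced a crude extract, used at 1 mg/mL protein. Exposure to 10 μM compound lasted 30 min, and aliquots were then heated for 3 min across 48°C-58°C, pooled and brought to 0.5% NP-40 at 4°C. The supernatant after 21,000xg for 90 min was quantified by TMTpro 16plex LC-MS/MS with channel sums equalised. Duplicate values are given as log-two fold change in thermal stability relative to solvent controls.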
row,Target,log2 fold change
1,LINS1 (UniProt Q8NG48),inactive: -0.037
2,LLPH (UniProt Q9BRT6),inactive: -0.07
3,LCLAT1 (UniProt Q6UWP7),inactive: -0.059
4,LIG4 (UniProt P49917),inactive: -0.002
5,LPCAT2 (UniProt Q7L5N7),inactive: -0.032
6,LRCH4 (UniProt O75427),inactive: -0.038
7,LIMS1 isoform 3 (UniProt P48059),inactive: 0.037
8,LSM14B isoform 2 (UniProt Q9BX40),inactive: 0.058
9,LIMD1 (UniProt Q9UGP4),inactive: -0.026
10,LCP2 (UniProt Q13094),inactive: 0.045
11,LIN7C (UniProt Q9NUP9),inactive: -0.059
12,LSM3 (UniProt P62310),inactive: 0.006
13,LMNA (UniProt P02545),inactive: -0.04
14,LDAH isoform 2 (UniProt Q9H6V9),inactive: 0.075
15,LRRC47 (UniProt Q8N1G4),inactive: 0.016
16,LLGL1 (UniProt Q15334),inactive: -0.056
17,LIMK2 isoform 3 (UniProt P53671),inactive: 0.005
18,LDB1 (UniProt Q86U70),inactive: -0.008
19,LMNB1 (UniProt P20700),inactive: 0.058
20,LRRC41 (UniProt Q15345),inactive: 0.038
21,LRFN1 (UniProt Q9P244),inactive: 0.046
22,LRRC4B (UniProt Q9NT99),inactive: 0.21
23,LGALS8 isoform 2 (UniProt O00214),inactive: 0.002

# Two entries from above, tab-delimited.
row	Target	log2 fold change
5	LPCAT2 (UniProt Q7L5N7)	inactive: -0.032
6	LRCH4 (UniProt O75427)	inactive: -0.038

# From the supplement of paper PMC10849652
